Experimental data as given in paper PMC5039214.
No constants are given. Whether binding was seen depends on the method and setting.

Molecular target: Skint-1 DV (membrane distal immunoglobulin (Ig) domain of Skint-1), residues S24 to T141 (mouse) (UniProt A7TZE6)
Experiment: SEC; Superdex-200 (GE Healthcare) pre-equilibrated with 50 mM NaCl, 20 mM MES pH 6.5; refolded protein, elution profile; both purified

binding: no binding
B1: Skint-1 DV (membrane distal immunoglobulin (Ig) domain of Skint-1), residues S24 to T141 (domain or fragment, UniProt A7TZE6 24-141)
chain: SSEPFIVNGLEGPVLASLGGNLELSCQLSPPQQAQHMEIRWFRNLYTEPVHLYRDGKDMFGEIISKYVERTELLKDGIGEGKVTLRIFNVTVDDDGSYHCVFKDGDFYEEHITEVKIT
